Results published in the supplement of paper PMC12823440, “Inhibitors supercharge kinase turnover through native proteolytic circuits” (Nature, 2025).
Where a name gives a salt, the structure may show the parent alone. This is one part of the list. The calls rarely recur for the same compound in another form.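 Kinases, fused to nanoluciferase, were expressed in K562 cells; luminescence was measured every 4 h from 2 to 18 h as percent of control (DMSO = 100%, positive control = 0%). A time point is decreased if signal falls significantly (2 sigma). Hits were called by the authors by a rule that is not shown; the count of time points alone does not decide it.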

Chains of the proteins cited; added tags and fusions are not shown. Lines headed by an entry give the natural chain unless they say otherwise; changes in a name come on top.
UniProt O75460: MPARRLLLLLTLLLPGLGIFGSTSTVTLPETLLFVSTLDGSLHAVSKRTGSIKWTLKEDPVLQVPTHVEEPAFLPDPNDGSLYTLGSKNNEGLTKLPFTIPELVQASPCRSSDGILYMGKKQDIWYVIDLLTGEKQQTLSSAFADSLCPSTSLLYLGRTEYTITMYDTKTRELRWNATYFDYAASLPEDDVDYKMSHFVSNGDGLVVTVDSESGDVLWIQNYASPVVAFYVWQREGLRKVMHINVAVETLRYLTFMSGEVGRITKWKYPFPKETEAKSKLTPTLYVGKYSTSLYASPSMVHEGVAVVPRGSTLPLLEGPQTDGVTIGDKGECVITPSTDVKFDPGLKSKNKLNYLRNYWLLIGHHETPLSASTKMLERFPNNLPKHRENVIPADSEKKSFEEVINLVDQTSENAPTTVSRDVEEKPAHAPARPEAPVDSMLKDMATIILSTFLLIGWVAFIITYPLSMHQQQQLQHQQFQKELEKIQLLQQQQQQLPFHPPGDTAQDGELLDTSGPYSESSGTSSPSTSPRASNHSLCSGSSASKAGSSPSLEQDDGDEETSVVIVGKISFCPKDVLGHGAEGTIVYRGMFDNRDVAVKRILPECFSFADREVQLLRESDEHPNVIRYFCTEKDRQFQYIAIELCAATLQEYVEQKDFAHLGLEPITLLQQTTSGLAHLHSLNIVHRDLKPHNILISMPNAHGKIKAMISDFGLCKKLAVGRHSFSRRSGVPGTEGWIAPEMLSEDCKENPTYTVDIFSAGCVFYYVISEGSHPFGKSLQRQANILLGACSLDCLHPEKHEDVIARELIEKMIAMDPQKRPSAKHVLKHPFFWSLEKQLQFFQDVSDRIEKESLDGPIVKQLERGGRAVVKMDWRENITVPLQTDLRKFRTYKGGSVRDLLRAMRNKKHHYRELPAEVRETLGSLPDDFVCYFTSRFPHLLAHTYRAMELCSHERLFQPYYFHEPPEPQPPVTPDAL
UniProt P11362, whole entry, looked up: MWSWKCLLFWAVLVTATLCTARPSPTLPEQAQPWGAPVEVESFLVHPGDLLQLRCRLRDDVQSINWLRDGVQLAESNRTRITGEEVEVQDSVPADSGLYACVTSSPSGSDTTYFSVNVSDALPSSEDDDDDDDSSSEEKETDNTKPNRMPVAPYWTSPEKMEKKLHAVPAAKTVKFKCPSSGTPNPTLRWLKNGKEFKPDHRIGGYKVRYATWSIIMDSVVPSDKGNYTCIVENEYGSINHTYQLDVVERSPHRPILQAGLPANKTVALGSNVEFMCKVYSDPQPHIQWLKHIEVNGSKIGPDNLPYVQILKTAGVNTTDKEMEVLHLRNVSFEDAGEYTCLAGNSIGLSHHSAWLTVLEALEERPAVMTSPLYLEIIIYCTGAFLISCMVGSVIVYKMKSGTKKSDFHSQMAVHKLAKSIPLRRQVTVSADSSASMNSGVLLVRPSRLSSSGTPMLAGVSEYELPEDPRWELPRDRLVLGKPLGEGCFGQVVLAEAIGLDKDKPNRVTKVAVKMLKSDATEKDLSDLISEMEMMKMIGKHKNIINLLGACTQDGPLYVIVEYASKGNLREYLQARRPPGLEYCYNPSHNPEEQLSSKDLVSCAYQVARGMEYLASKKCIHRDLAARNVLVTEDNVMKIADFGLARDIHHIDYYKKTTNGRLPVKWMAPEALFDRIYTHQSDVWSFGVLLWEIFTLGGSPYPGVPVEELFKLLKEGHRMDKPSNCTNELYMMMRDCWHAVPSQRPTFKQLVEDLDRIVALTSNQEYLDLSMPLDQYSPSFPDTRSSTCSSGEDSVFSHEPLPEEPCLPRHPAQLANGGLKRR
UniProt P21802, whole entry, looked up: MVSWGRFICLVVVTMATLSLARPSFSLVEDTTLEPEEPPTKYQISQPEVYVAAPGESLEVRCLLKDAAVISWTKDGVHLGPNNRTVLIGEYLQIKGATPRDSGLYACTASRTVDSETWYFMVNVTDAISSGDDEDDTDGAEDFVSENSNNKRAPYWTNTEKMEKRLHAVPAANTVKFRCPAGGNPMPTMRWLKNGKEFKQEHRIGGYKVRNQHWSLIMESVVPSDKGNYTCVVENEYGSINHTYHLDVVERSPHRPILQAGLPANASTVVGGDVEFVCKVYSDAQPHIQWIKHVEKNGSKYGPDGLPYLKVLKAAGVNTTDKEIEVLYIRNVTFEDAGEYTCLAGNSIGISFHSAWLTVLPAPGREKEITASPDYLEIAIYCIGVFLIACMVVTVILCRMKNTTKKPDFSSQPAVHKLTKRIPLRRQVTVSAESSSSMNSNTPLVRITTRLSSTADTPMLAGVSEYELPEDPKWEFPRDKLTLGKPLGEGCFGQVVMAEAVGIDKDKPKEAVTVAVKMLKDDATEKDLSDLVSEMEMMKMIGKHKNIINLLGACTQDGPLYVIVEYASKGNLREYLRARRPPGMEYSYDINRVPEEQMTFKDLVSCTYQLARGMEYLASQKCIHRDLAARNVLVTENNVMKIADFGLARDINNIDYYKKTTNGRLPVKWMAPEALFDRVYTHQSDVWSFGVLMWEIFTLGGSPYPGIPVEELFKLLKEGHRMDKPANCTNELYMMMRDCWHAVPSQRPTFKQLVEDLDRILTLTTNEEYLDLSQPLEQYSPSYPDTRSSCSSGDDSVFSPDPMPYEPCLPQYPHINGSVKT
UniProt P22607, whole entry, looked up: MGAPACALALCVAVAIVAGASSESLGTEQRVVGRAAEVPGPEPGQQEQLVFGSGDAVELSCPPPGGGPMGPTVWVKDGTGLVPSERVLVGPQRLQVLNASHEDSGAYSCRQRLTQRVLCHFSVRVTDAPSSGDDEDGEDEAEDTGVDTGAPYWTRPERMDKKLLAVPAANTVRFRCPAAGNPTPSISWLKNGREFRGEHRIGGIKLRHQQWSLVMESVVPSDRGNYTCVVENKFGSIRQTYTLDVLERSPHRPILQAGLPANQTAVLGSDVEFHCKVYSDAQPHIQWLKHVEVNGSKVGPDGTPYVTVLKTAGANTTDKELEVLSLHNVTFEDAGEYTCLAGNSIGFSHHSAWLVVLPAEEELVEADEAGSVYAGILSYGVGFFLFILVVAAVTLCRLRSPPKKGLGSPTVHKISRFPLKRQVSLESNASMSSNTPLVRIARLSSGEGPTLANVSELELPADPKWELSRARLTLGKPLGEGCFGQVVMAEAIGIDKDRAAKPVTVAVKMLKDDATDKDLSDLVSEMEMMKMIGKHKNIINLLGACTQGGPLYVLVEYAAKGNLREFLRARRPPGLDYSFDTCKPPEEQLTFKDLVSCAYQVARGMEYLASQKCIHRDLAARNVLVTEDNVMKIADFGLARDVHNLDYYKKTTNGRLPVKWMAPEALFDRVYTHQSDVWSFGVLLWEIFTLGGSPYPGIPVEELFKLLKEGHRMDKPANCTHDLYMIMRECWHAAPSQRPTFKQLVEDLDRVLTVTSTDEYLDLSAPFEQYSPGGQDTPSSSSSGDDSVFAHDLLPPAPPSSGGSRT
UniProt P06241, whole entry, looked up: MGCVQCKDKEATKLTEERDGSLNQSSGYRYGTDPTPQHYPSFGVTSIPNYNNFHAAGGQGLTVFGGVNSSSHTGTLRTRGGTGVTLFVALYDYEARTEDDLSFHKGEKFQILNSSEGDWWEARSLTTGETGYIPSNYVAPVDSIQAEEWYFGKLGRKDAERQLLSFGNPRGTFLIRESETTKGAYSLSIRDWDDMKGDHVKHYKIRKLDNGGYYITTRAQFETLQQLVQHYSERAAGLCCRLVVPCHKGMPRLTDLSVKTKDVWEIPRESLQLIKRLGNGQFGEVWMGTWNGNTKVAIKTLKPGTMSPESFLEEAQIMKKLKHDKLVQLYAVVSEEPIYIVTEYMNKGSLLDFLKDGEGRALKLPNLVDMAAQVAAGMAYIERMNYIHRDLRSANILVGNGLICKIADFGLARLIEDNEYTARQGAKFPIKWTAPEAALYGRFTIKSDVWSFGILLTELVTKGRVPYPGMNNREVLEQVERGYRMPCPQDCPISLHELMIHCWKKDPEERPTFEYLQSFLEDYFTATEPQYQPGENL
UniProt P49840: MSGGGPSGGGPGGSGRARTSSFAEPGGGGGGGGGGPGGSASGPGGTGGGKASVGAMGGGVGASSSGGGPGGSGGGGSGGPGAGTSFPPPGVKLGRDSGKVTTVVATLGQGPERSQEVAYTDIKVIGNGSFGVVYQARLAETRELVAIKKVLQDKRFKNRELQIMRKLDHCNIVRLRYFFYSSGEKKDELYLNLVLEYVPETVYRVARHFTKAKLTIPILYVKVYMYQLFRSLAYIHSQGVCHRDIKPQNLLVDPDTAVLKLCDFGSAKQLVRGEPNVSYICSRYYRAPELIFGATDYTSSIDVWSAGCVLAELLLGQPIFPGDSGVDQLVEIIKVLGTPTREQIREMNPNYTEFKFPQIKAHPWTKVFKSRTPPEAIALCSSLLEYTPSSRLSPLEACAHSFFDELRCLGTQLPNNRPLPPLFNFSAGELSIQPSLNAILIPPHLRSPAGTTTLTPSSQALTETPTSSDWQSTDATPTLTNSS
UniProt P14616: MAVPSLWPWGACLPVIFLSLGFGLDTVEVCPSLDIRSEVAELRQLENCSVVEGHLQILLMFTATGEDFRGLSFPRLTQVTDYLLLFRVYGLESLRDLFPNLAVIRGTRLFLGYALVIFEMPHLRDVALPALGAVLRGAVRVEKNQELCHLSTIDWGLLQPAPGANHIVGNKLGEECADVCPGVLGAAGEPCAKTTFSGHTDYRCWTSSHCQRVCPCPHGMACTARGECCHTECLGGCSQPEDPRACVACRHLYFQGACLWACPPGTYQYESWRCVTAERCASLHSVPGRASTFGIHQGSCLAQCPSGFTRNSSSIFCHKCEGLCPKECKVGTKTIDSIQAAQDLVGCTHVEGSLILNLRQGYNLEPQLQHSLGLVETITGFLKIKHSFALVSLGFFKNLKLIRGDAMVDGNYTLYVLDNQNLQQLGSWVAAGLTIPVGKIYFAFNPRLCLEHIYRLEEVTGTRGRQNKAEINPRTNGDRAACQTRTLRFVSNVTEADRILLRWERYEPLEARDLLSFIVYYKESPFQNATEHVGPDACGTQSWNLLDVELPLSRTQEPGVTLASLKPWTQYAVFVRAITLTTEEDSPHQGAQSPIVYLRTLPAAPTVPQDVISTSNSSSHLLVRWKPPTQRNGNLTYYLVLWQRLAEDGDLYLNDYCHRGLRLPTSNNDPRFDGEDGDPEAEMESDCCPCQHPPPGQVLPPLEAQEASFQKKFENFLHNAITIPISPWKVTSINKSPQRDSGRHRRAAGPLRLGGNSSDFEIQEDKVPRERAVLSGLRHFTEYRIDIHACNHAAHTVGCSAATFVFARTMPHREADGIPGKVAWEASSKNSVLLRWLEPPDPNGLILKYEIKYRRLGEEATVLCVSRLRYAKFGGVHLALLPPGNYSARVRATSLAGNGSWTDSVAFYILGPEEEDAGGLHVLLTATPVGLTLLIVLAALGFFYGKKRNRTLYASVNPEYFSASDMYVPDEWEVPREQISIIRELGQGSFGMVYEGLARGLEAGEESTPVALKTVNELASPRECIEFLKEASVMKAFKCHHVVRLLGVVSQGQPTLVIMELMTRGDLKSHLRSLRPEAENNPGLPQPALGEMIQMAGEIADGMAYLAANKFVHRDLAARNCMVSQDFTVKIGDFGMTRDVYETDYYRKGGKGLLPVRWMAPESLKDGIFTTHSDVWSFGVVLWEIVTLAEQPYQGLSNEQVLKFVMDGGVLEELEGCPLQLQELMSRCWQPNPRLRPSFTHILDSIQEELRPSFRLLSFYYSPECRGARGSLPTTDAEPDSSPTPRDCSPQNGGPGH

Assays:
Assay in all cases: kinase-Nluc reporter destabilization hit call (1 = scored as downregulated) (binary); higher = compound decreases kinase abundance
Conditions in all cases: K562; 2-18 h
ERN1 = ERN1 (UniProt O75460)
FGFR1 = FGFR1 (UniProt P11362)
FGFR2 = FGFR2 (UniProt P21802)
FGFR3 = FGFR3 (UniProt P22607)
FGR = FGR (UniProt P09769)
FLT3 = FLT3 (UniProt P36888)
FYN = FYN (UniProt P06241)
GSK3A = GSK3A (UniProt P49840)
HER2 = HER2 (UniProt P04626)
INSRR = INSRR (UniProt P14616)

Measured: kinase-Nluc reporter destabilization hit call

COc1nc(-c2ccnc(NC(=O)C3CC3)c2)sc1C(N)=O [GSK-3β inhibitor 2] (10 µM)
inactive: ERN1 = 0 | FGFR1 = 0 | FGFR2 = 0 | FGFR3 = 0 | FGR 0 | FLT3 = 0 | FYN 0 | GSK3A 0 | HER2 = 0 | INSRR 0

O=c1ccoc2cc(O)ccc12 [7-Hydroxy-4H-chromen-4-one] (10 µM)
inactive: ERN1 = 0 | FGFR1 = 0 | FGFR2 = 0 | FGFR3 = 0 | FGR 0 | FLT3 = 0 | FYN 0 | GSK3A 0 | HER2 = 0 | INSRR 0

CC(C)N(C)c1nc2cc(C(=O)O)ccc2nc1-c1ccc(F)cc1 (10 µM)
inactive: ERN1 = 0 | FGFR1 = 0 | FGFR2 = 0 | FGFR3 = 0 | FGR 0 | FLT3 = 0 | FYN 0 | GSK3A 0 | HER2 = 0 | INSRR 0

O[C@H]1CC[C@H](Nc2ncc3nc(Nc4c(F)cc(F)cc4F)n([C@H]4CCOC4)c3n2)CC1 [Tanzisertib] (10 µM)
inactive: ERN1 = 0 | FGFR1 = 0 | FGFR2 = 0 | FGFR3 = 0 | FGR 0 | FLT3 = 0 | FYN 0 | GSK3A 0 | HER2 = 0 | INSRR 0

O=C(O)c1cc(O)c2c(c1)[C@@H]([C@H]1c3cc(C(=O)O)cc(O)c3C(=O)c3c(O[C@@H]4O[C@H](CO)[C@@H](O)[C@H](O)[C@H]4O)cccc31)c1cccc(O[C@@H]3O[C@H](CO)[C@@H](O)[C@H](O)[C@H]3O)c1C2=O [Sennoside B] (2.5 µM)
inactive: ERN1 = 0 | FGFR1 = 0 | FGFR2 = 0 | FGFR3 = 0 | FGR 0 | FLT3 = 0 | FYN 0 | GSK3A 0 | HER2 = 0 | INSRR 0

O=C(Nc1ccc(Cl)c(Cl)c1)Nc1ccc2nnsc2c1 (10 µM)
inactive: ERN1 = 0 | FGFR1 = 0 | FGFR2 = 0 | FGFR3 = 0 | FGR 0 | FLT3 = 0 | FYN 0 | GSK3A 0 | HER2 = 0 | INSRR 0

COc1cc(N2CCC(O)CC2)ccc1Nc1cc(Nc2ccccc2S(=O)(=O)C(C)C)c2cc[nH]c2n1 (10 µM)
inactive: ERN1 = 0 | FGFR1 = 0 | FGFR2 = 0 | FGFR3 = 0 | FGR 0 | FLT3 = 0 | FYN 0 | GSK3A 0 | HER2 = 0 | INSRR 0

O=C(CCCCCn1cc(Nc2ncc(Cl)c(Nc3ccc(Cl)cc3)n2)cn1)NO (2.5 µM)
inactive: ERN1 = 0 | FGFR1 = 0 | FGFR2 = 0 | FGFR3 = 0 | FGR 0 | FLT3 = 0 | FYN 0 | GSK3A 0 | HER2 = 0 | INSRR 0

C[C@@H]1COCCN1c1cc(=O)n2c(n1)N(Cc1cncc(Cl)c1)[C@H](C(F)(F)F)CC2 (10 µM)
inactive: ERN1 = 0 | FGFR1 = 0 | FGFR2 = 0 | FGFR3 = 0 | FGR 0 | FLT3 = 0 | FYN 0 | GSK3A 0 | HER2 = 0 | INSRR 0

CC[C@@H]1[C@H](F)C(=O)N[C@@H]1COc1nccc2cc(C(N)=O)c(OC)cc12 (10 µM)
inactive: ERN1 = 0 | FGFR1 = 0 | FGFR2 = 0 | FGFR3 = 0 | FGR 0 | FLT3 = 0 | FYN 0 | GSK3A 0 | HER2 = 0 | INSRR 0

8 compounds from above, ordered by count of non-hydrogen atoms, descending.
O=C(O)c1cc(O)c2c(c1)[C@@H]([C@H]1c3cc(C(=O)O)cc(O)c3C(=O)c3c(O[C@@H]4O[C@H](CO)[C@@H](O)[C@H](O)[C@H]4O)cccc31)c1cccc(O[C@@H]3O[C@H](CO)[C@@H](O)[C@H](O)[C@H]3O)c1C2=O [Sennoside B] (2.5 µM)
inactive: ERN1 = 0 | FGFR1 = 0 | FGFR2 = 0 | FGFR3 = 0 | FGR 0 | FLT3 = 0 | FYN 0 | GSK3A 0 | HER2 = 0 | INSRR 0

O[C@H]1CC[C@H](Nc2ncc3nc(Nc4c(F)cc(F)cc4F)n([C@H]4CCOC4)c3n2)CC1 [Tanzisertib] (10 µM)
inactive: ERN1 = 0 | FGFR1 = 0 | FGFR2 = 0 | FGFR3 = 0 | FGR 0 | FLT3 = 0 | FYN 0 | GSK3A 0 | HER2 = 0 | INSRR 0

C[C@@H]1COCCN1c1cc(=O)n2c(n1)N(Cc1cncc(Cl)c1)[C@H](C(F)(F)F)CC2 (10 µM)
inactive: ERN1 = 0 | FGFR1 = 0 | FGFR2 = 0 | FGFR3 = 0 | FGR 0 | FLT3 = 0 | FYN 0 | GSK3A 0 | HER2 = 0 | INSRR 0

CC[C@@H]1[C@H](F)C(=O)N[C@@H]1COc1nccc2cc(C(N)=O)c(OC)cc12 (10 µM)
inactive: ERN1 = 0 | FGFR1 = 0 | FGFR2 = 0 | FGFR3 = 0 | FGR 0 | FLT3 = 0 | FYN 0 | GSK3A 0 | HER2 = 0 | INSRR 0

CC(C)N(C)c1nc2cc(C(=O)O)ccc2nc1-c1ccc(F)cc1 (10 µM)
inactive: ERN1 = 0 | FGFR1 = 0 | FGFR2 = 0 | FGFR3 = 0 | FGR 0 | FLT3 = 0 | FYN 0 | GSK3A 0 | HER2 = 0 | INSRR 0

COc1nc(-c2ccnc(NC(=O)C3CC3)c2)sc1C(N)=O [GSK-3β inhibitor 2] (10 µM)
inactive: ERN1 = 0 | FGFR1 = 0 | FGFR2 = 0 | FGFR3 = 0 | FGR 0 | FLT3 = 0 | FYN 0 | GSK3A 0 | HER2 = 0 | INSRR 0

O=C(Nc1ccc(Cl)c(Cl)c1)Nc1ccc2nnsc2c1 (10 µM)
inactive: ERN1 = 0 | FGFR1 = 0 | FGFR2 = 0 | FGFR3 = 0 | FGR 0 | FLT3 = 0 | FYN 0 | GSK3A 0 | HER2 = 0 | INSRR 0

O=c1ccoc2cc(O)ccc12 [7-Hydroxy-4H-chromen-4-one] (10 µM)
inactive: ERN1 = 0 | FGFR1 = 0 | FGFR2 = 0 | FGFR3 = 0 | FGR 0 | FLT3 = 0 | FYN 0 | GSK3A 0 | HER2 = 0 | INSRR 0

Continuation.

CC(C)(C)C(=O)N1N=CC[C@H]1c1ccccc1 (10 µM)
inactive: ERN1 = 0 | FGFR1 = 0 | FGFR2 = 0 | FGFR3 = 0 | FGR 0 | FLT3 = 0 | FYN 0 | GSK3A 0 | HER2 = 0 | INSRR 0

CC(C)C[C@H](NC(=O)[C@H](CCCCN)NC(=O)[C@H](CO)NC(=O)[C@@H](N)CC(C)C)C(N)=O [LSKL, Inhibitor of Thrombospondin (TSP-1) (TFA)] (10 µM)
inactive: ERN1 = 0 | FGFR1 = 0 | FGFR2 = 0 | FGFR3 = 0 | FGR 0 | FLT3 = 0 | FYN 0 | GSK3A 0 | HER2 = 0 | INSRR 0

COc1ncc(Nc2ncc([C@@H](C)N3CCN(S(C)(=O)=O)CC3)cc2-c2nc(C)nc(N)n2)cc1F (10 µM)
inactive: ERN1 = 0 | FGFR1 = 0 | FGFR2 = 0 | FGFR3 = 0 | FGR 0 | FLT3 = 0 | FYN 0 | GSK3A 0 | HER2 = 0 | INSRR 0

CN(C)C(=O)c1ccc(S(=O)(=O)c2ccc(NC(=O)[C@@](C)(O)C(F)(F)F)c(Cl)c2)cc1 (10 µM)
inactive: ERN1 = 0 | FGFR1 = 0 | FGFR2 = 0 | FGFR3 = 0 | FGR 0 | FLT3 = 0 | FYN 0 | GSK3A 0 | HER2 = 0 | INSRR 0

[O-][n+]1cccc(-c2nc3c(Cl)cccc3cc2[C@@H](Nc2ncnc3cccnc23)C(F)(F)F)c1 [Seletalisib] (10 µM)
inactive: ERN1 = 0 | FGFR1 = 0 | FGFR2 = 0 | FGFR3 = 0 | FGR 0 | FLT3 = 0 | FYN 0 | GSK3A 0 | HER2 = 0 | INSRR 0

O=C1NC(=O)/C(=C/c2ccc(-c3ccc(F)cc3O)o2)S1 (10 µM)
inactive: ERN1 = 0 | FGFR1 = 0 | FGFR2 = 0 | FGFR3 = 0 | FGR 0 | FLT3 = 0 | FYN 0 | GSK3A 0 | HER2 = 0 | INSRR 0

Cc1ccc(-c2ccc3c(ccc4sc5c(c43)NC[C@@H](C)NC5=O)n2)cn1 (10 µM)
inactive: ERN1 = 0 | FGFR1 = 0 | FGFR2 = 0 | FGFR3 = 0 | FGR 0 | FLT3 = 0 | FYN 0 | GSK3A 0 | HER2 = 0 | INSRR 0

CCCCCCCC/C=C\CCCCCCCC(=O)NCC(=O)O [N-Oleoyl glycine] (10 µM)
inactive: ERN1 = 0 | FGFR1 = 0 | FGFR2 = 0 | FGFR3 = 0 | FGR 0 | FLT3 = 0 | FYN 0 | GSK3A 0 | HER2 = 0 | INSRR 0

CC(=O)NCCc1c[nH]c2ccc(O)cc12 [N-Acetyl-5-hydroxytryptamine] (10 µM)
inactive: ERN1 = 0 | FGFR1 = 0 | FGFR2 = 0 | FGFR3 = 0 | FGR 0 | FLT3 = 0 | FYN 0 | GSK3A 0 | HER2 = 0 | INSRR 0

Fc1c(Br)cccc1Nc1ncnc2cc3c(cc12)OCCO3 (2.5 µM)
inactive: ERN1 = 0 | FGFR1 = 0 | FGFR2 = 0 | FGFR3 = 0 | FGR 0 | FLT3 = 0 | FYN 0 | GSK3A 0 | HER2 = 0 | INSRR 0

CC(C)c1ccc(CC(=O)N2CCN(c3ccc(C#N)nn3)CC2)cc1 (10 µM)
inactive: ERN1 = 0 | FGFR1 = 0 | FGFR2 = 0 | FGFR3 = 0 | FGR 0 | FLT3 = 0 | FYN 0 | GSK3A 0 | HER2 = 0 | INSRR 0

CCc1c(C)sc(NC(=S)NC(=O)c2ccc(Cl)cc2)c1C(N)=O (10 µM)
inactive: ERN1 = 0 | FGFR1 = 0 | FGFR2 = 0 | FGFR3 = 0 | FGR 0 | FLT3 = 0 | FYN 0 | GSK3A 0 | HER2 = 0 | INSRR 0

O=Nc1c(-c2c(O)[nH]c3ccccc23)[nH]c2ccccc12 [Indirubin-3'-monoxime] (2.5 µM)
inactive: ERN1 = 0 | FGFR1 = 0 | FGFR2 = 0 | FGFR3 = 0 | FGR 0 | FLT3 = 0 | FYN 0 | GSK3A 0 | HER2 = 0 | INSRR 0

CC(=O)Nc1nc2ccc(-c3cnc(C)c(NC(=O)OC4CCCCC4)c3)cc2s1 (10 µM)
inactive: ERN1 = 0 | FGFR1 = 0 | FGFR2 = 0 | FGFR3 = 0 | FGR 0 | FLT3 = 0 | FYN 0 | GSK3A 0 | HER2 = 0 | INSRR 0

CC(CCc1ccccn1)(CCc1ccccn1)C(=O)c1ccccc1 (10 µM)
inactive: ERN1 = 0 | FGFR1 = 0 | FGFR2 = 0 | FGFR3 = 0 | FGR 0 | FLT3 = 0 | FYN 0 | GSK3A 0 | HER2 = 0 | INSRR 0

CCCCNC(=N)NC(=N)N [Buformin (hydrochloride)] (2.5 µM)
inactive: ERN1 = 0 | FGFR1 = 0 | FGFR2 = 0 | FGFR3 = 0 | FGR 0 | FLT3 = 0 | FYN 0 | GSK3A 0 | HER2 = 0 | INSRR 0

COc1cc(C(=O)N2CCC(N3CCN(C)CC3)CC2)ccc1Nc1ncc2c(n1)N(C)c1ccccc1C(=O)N2C (10 µM)
inactive: ERN1 = 0 | FGFR1 = 0 | FGFR2 = 0 | FGFR3 = 0 | FGR 0 | FLT3 = 0 | FYN 0 | GSK3A 0 | HER2 = 0 | INSRR 0

COc1ccc2c(c1)c(C1=C(c3c[nH]c4ccccc34)C(=O)NC1=O)cn2CCCN(C)C (10 µM)
inactive: ERN1 = 0 | FGFR1 = 0 | FGFR2 = 0 | FGFR3 = 0 | FGR 0 | FLT3 = 0 | FYN 0 | GSK3A 0 | HER2 = 0 | INSRR 0

O=C1NCCCc2c1oc1ccc(O)cc21 (10 µM)
inactive: ERN1 = 0 | FGFR1 = 0 | FGFR2 = 0 | FGFR3 = 0 | FGR 0 | FLT3 = 0 | FYN 0 | GSK3A 0 | HER2 = 0 | INSRR 0

c1cc(-c2cnn3cc(-c4ccc(N5CCNCC5)cc4)cnc23)c2cccnc2c1 (2.5 µM)
inactive: ERN1 = 0 | FGFR1 = 0 | FGFR2 = 0 | FGFR3 = 0 | FGR 0 | FLT3 = 0 | FYN 0 | GSK3A 0 | HER2 = 0 | INSRR 0
